Data as given in PubChem BioAssay AID1259308 (NCATS, 2017)

Aim: 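Knock-downs that increase output of a recombinant reporter protein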 (primary screen)
Cells: human HEK293 embryonic kidney cells stably expressing firefly luciferase (HEK-CMV-Luc2-Hygro)
Reagents: single siRNA against human genes, 0.8 pmol siRNA per well
Timing: 72 h
Measurement: 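Luciferase light (ONE-Glo) measured on one replicate plate set and viability (CellTiter-Glo) on the other, scaled to a negative control siRNA, with robust z-scores and luciferase per cell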
Direction: total luciferase, z-score: higher = more reporter protein produced
Call rule: 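An siRNA counts as active if its total luciferase robust z-score exceeds 3; genes with two or more such siRNAs out of three were retested with fresh siRNAs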
Calls: active = raised luciferase; inactive = no rise
Here is an unselected part of about 59,000 deposited reagents. About 1,510 of them (2.6%) were called active. 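Calls use total luciferase alone and ignore viability, so some active siRNAs may act by altering cell number.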 Unmarked entries are inactive. The numbers tell different reagents against one gene apart. Not all columns of the deposit are shown.

gene symbol	reagent no.	total luciferase, z-score
INTS7	1	0.318
INTS7	2	4.98 (active)
INTS7	3	1.42
BAIAP3	1	-0.591
BAIAP3	2	1.47
BAIAP3	3	-0.909
NPHP3	1	0.26
NPHP3	2	-1.69
NPHP3	3	0.364

Already shown: 4 of the entries above.
gene symbol	reagent no.	total luciferase, z-score
BAIAP3	2	1.47
BAIAP3	3	-0.909
NPHP3	1	0.26
NPHP3	2	-1.69

More results:
gene symbol	reagent no.	total luciferase, z-score
C10orf95	1	0.13
C10orf95	2	-0.653
C10orf95	3	0.191
RIPPLY2	1	-1.89
RIPPLY2	2	-1.16
RIPPLY2	3	0.721
RAB42	1	-0.271
RAB42	2	-0.217
RAB42	3	-0.389
MICOS10	1	-0.0383
MICOS10	2	2.34
MICOS10	3	1.51
GALNT12	1	-1.72
GALNT12	2	-0.0693
GALNT12	3	3.3 (active)
